# In the supplement of paper PMC8728848:
# The other results are listed elsewhere or left out.
# B1: SP15308C-bot-338-23-338 (Bacteroides ovatus) (protein)
# chain: DEWTDEQFKQLISFKTQPGGWGVTDVHVRYANSAKYTYNLPVLVSGSTDNTDDRLVSFSLRDDTLDILNFEKFGNRPELYFRELPQKYYSFPKELTIPAGQSHALLPIEFSLDGLDDSQKWALPLKVCEDANGTYAVNPRKYYRTAVLRPILFNEFSGRFSGSSLLGTMAGESDIKFSSTEIKLNVVTDSIVFFYAGQRTEDYEDRINYKVFLQFTGDKVDSKKDLYKMKIWAENEKLKFNSYSTPTYKVSSEMDATKTYLKHTYIVISDIDFDFVDYTSVPNYEIEYNMKGGLSVSRDLDTRKPDEDQGSDSKWW
# Legend:
# Test in all cases: glycan array binding signal (z-score within array); higher = stronger binding
# Conditions in all cases: glycan notation: IUPAC condensed, linker removed
# [1] = molecular target: Fuc(a1-3)[Gal3S(b1-4)]GlcNAc
# In short: (§1)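 Columns mapping to the same glycan were averaged after glycan names were converted to IUPAC-condensed notation. The data come from 3228 arrays in the Consortium for Functional Glycomics database, limited to those with an available protein sequence. Binding is reported as a within-array Z-score averaged across arrays of one protein sequence and across linkers.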
# [2] = molecular target: Fuc(a1-3)[Gal3S(b1-4)]GlcNAc6S
# In short: as §1
# [3] = molecular target: Fuc(a1-3)[GalNAc(b1-4)]GlcNAc
# In short: as §1
# [4] = molecular target: Fuc(a1-3)[GalNAc(b1-4)]GlcNAc6S
# In short: as §1
# Fuc(a1-4)GlcNAc = molecular target: Fuc(a1-4)GlcNAc
# In short: as §1
# Fuc(b1-3)GlcNAc = molecular target: Fuc(b1-3)GlcNAc
# In short: as §1
# Gal(a1-2)Gal = molecular target: Gal(a1-2)Gal
# In short: as §1
# Gal(a1-3)Gal = molecular target: Gal(a1-3)Gal
# In short: as §1
# Gal(a1-3)Gal(b1-3)GlcNAc = molecular target: Gal(a1-3)Gal(b1-3)GlcNAc
# In short: as §1
# [5] = molecular target: Gal(a1-3)Gal(b1-3)GlcNAc(b1-2)Man
# In short: as §1
# [6] = molecular target: Gal(a1-3)Gal(b1-3)GlcNAc(b1-2)Man(a1-3)[Gal(a1-3)Gal(b1-3)GlcNAc(b1-2)Man(a1-6)]Man(b1-4)GlcNAc(b1-4)GlcNAc
# In short: as §1
# [7] = molecular target: Gal(a1-3)Gal(b1-3)GlcNAc(b1-3)GalNAc
# In short: as §1
# [8] = molecular target: Gal(a1-3)Gal(b1-3)GlcNAc(b1-6)GalNAc
# In short: as §1
# [9] = molecular target: Gal(a1-3)Gal(b1-3)[Fuc(a1-4)]GlcNAc(b1-2)Man(a1-3)[Gal(a1-3)Gal(b1-3)[Fuc(a1-4)]GlcNAc(b1-2)Man(a1-6)]Man(b1-4)GlcNAc(b1-4)GlcNAc
# In short: as §1
# Gal(a1-3)Gal(b1-4)Glc = molecular target: Gal(a1-3)Gal(b1-4)Glc
# In short: as §1
# Gal(a1-3)Gal(b1-4)GlcNAc = molecular target: Gal(a1-3)Gal(b1-4)GlcNAc
# In short: as §1
# [10] = molecular target: Gal(a1-3)Gal(b1-4)GlcNAc(b1-2)Man
# In short: as §1
# [11] = molecular target: Gal(a1-3)Gal(b1-4)GlcNAc(b1-2)Man(a1-3)[Gal(a1-3)Gal(b1-4)GlcNAc(b1-2)Man(a1-6)]Man(b1-4)GlcNAc(b1-4)GlcNAc
# In short: as §1
# [12] = molecular target: Gal(a1-3)Gal(b1-4)GlcNAc(b1-3)GalNAc
# In short: as §1
# [13] = molecular target: Gal(a1-3)Gal(b1-4)GlcNAc(b1-6)GalNAc
# In short: as §1
# [14] = molecular target: Gal(a1-3)Gal(b1-4)[Fuc(a1-3)]GlcNAc
# In short: as §1
# [15] = molecular target: Gal(a1-3)Gal(b1-4)[Fuc(a1-3)]GlcNAc(b1-2)Man(a1-3)[Gal(a1-3)Gal(b1-4)[Fuc(a1-3)]GlcNAc(b1-2)Man(a1-6)]Man(b1-4)GlcNAc(b1-4)GlcNAc
# In short: as §1
# Gal(a1-3)GalNAc = molecular target: Gal(a1-3)GalNAc
# In short: as §1
# [16] = molecular target: Gal(a1-3)[Gal(a1-4)]Gal(b1-4)GlcNAc
# In short: as §1
# [17] = molecular target: Gal(a1-4)Gal(b1-3)GlcNAc(b1-2)Man(a1-3)[Gal(a1-4)Gal(b1-3)GlcNAc(b1-2)Man(a1-6)]Man(b1-4)GlcNAc(b1-4)GlcNAc
# In short: as §1
# Gal(a1-4)Gal(b1-4)Glc = molecular target: Gal(a1-4)Gal(b1-4)Glc
# In short: as §1
# Gal(a1-4)Gal(b1-4)GlcNAc = molecular target: Gal(a1-4)Gal(b1-4)GlcNAc
# In short: as §1
# [18] = molecular target: Gal(a1-4)Gal(b1-4)GlcNAc(b1-2)Man(a1-3)[Gal(a1-4)Gal(b1-4)GlcNAc(b1-2)Man(a1-6)]Man(b1-4)GlcNAc(b1-4)GlcNAc
# In short: as §1
# [19] = molecular target: Gal(a1-4)Gal(b1-4)GlcNAc(b1-3)Gal(b1-4)Glc
# In short: as §1
# Gal(a1-4)GlcNAc = molecular target: Gal(a1-4)GlcNAc
# In short: as §1
# Gal(a1-6)Glc = molecular target: Gal(a1-6)Glc
# In short: as §1
# Gal(b1-2)Gal = molecular target: Gal(b1-2)Gal
# In short: as §1
# Gal(b1-3)Gal = molecular target: Gal(b1-3)Gal
# In short: as §1
# Gal(b1-3)Gal(b1-4)GlcNAc = molecular target: Gal(b1-3)Gal(b1-4)GlcNAc
# In short: as §1
# Gal(b1-3)GalNAc = molecular target: Gal(b1-3)GalNAc
# In short: as §1
# [20] = molecular target: Gal(b1-3)GalNAc(a1-3)[Fuc(a1-2)]Gal(b1-4)Glc
# In short: as §1
# [21] = molecular target: Gal(b1-3)GalNAc(a1-3)[Fuc(a1-2)]Gal(b1-4)GlcNAc
# In short: as §1
binder,measurement,setting,value
B1,glycan array binding signal (z-score),[1],0.145
same,glycan array binding signal (z-score),[2],0.261
same,glycan array binding signal (z-score),[3],0.291
same,glycan array binding signal (z-score),[4],-0.31
same,glycan array binding signal (z-score),Fuc(a1-4)GlcNAc,2.58
same,glycan array binding signal (z-score),Fuc(b1-3)GlcNAc,-0.386
same,glycan array binding signal (z-score),Gal(a1-2)Gal,-0.439
same,glycan array binding signal (z-score),Gal(a1-3)Gal,-0.425
same,glycan array binding signal (z-score),Gal(a1-3)Gal(b1-3)GlcNAc,-0.328
same,glycan array binding signal (z-score),[5],-0.735
same,glycan array binding signal (z-score),[6],0.799
same,glycan array binding signal (z-score),[7],-0.385
same,glycan array binding signal (z-score),[8],-0.133
same,glycan array binding signal (z-score),[9],1.4
same,glycan array binding signal (z-score),Gal(a1-3)Gal(b1-4)Glc,-0.449
same,glycan array binding signal (z-score),Gal(a1-3)Gal(b1-4)GlcNAc,-0.307
same,glycan array binding signal (z-score),[10],-0.133
same,glycan array binding signal (z-score),[11],1.04
same,glycan array binding signal (z-score),[12],-0.787
same,glycan array binding signal (z-score),[13],-0.105
same,glycan array binding signal (z-score),[14],-0.613
same,glycan array binding signal (z-score),[15],1.61
same,glycan array binding signal (z-score),Gal(a1-3)GalNAc,-0.116
same,glycan array binding signal (z-score),[16],0.116
same,glycan array binding signal (z-score),[17],0.41
same,glycan array binding signal (z-score),Gal(a1-4)Gal(b1-4)Glc,-0.364
same,glycan array binding signal (z-score),Gal(a1-4)Gal(b1-4)GlcNAc,0.064
same,glycan array binding signal (z-score),[18],1.31
same,glycan array binding signal (z-score),[19],-0.013
same,glycan array binding signal (z-score),Gal(a1-4)GlcNAc,-0.707
same,glycan array binding signal (z-score),Gal(a1-6)Glc,-0.447
same,glycan array binding signal (z-score),Gal(b1-2)Gal,0.547
same,glycan array binding signal (z-score),Gal(b1-3)Gal,-0.335
same,glycan array binding signal (z-score),Gal(b1-3)Gal(b1-4)GlcNAc,0.073
same,glycan array binding signal (z-score),Gal(b1-3)GalNAc,-0.422
same,glycan array binding signal (z-score),[20],0.351
same,glycan array binding signal (z-score),[21],-0.728

# Not a retest: an excerpt of the list.
binder,measurement,setting,value
B1,glycan array binding signal (z-score),Gal(a1-3)Gal(b1-4)GlcNAc,-0.307
same,glycan array binding signal (z-score),[10],-0.133
